In the supplement of paper PMC10849652:
This is one part of the list.

Chains of the proteins cited; added tags and fusions are not shown. Lines headed by an entry give the natural chain unless they say otherwise; changes in a name come on top.
UniProt P60981: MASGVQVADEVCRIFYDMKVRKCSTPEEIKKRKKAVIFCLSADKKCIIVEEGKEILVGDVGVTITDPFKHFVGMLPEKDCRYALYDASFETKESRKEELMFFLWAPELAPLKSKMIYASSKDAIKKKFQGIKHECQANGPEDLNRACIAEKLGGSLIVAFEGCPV
UniProt Q9Y6G9, whole entry, looked up: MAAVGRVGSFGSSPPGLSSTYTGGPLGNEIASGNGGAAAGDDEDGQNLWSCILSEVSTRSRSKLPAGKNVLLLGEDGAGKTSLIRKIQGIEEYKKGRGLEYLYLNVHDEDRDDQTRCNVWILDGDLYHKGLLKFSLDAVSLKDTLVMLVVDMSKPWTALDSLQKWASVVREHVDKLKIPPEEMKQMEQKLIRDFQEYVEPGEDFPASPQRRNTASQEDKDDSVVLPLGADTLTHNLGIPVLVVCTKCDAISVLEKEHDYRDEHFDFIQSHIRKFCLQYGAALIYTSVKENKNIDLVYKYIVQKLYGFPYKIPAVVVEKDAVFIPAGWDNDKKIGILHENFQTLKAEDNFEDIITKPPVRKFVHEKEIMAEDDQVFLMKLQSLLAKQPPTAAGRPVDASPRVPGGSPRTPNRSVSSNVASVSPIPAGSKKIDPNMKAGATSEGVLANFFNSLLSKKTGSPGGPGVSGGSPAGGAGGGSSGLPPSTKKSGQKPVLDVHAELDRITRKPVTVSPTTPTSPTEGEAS
UniProt O00115: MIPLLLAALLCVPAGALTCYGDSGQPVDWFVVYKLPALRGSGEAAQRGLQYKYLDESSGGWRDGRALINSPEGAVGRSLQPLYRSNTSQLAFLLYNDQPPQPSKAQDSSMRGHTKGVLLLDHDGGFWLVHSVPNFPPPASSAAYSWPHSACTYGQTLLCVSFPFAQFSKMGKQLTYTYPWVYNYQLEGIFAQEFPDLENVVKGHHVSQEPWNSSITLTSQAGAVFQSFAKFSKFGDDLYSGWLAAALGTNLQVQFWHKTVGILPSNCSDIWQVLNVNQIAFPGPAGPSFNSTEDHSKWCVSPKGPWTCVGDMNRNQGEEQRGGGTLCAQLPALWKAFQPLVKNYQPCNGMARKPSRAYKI
UniProt Q99543: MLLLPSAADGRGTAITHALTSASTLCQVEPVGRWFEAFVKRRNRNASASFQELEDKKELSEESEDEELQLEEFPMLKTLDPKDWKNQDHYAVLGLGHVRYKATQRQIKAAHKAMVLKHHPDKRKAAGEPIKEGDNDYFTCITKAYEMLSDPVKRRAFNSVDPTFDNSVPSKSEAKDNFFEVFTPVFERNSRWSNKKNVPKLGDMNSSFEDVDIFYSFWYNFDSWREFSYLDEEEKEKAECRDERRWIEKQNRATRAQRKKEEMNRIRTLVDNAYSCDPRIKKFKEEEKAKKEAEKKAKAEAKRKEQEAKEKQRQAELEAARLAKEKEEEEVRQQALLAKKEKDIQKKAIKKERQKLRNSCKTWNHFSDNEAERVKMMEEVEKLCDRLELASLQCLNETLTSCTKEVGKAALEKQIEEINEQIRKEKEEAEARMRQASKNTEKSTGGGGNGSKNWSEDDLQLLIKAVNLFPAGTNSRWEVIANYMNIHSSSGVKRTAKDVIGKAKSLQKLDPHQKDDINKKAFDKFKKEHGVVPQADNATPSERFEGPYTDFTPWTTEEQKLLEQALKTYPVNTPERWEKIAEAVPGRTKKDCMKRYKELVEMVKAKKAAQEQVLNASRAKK
UniProt O75937: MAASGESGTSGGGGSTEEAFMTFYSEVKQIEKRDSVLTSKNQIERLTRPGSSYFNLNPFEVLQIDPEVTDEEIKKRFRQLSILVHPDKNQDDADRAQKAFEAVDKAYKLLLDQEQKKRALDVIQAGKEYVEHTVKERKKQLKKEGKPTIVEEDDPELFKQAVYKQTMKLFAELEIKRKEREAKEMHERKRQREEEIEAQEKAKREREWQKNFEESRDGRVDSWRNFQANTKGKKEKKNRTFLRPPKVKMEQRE
UniProt Q9BQC3: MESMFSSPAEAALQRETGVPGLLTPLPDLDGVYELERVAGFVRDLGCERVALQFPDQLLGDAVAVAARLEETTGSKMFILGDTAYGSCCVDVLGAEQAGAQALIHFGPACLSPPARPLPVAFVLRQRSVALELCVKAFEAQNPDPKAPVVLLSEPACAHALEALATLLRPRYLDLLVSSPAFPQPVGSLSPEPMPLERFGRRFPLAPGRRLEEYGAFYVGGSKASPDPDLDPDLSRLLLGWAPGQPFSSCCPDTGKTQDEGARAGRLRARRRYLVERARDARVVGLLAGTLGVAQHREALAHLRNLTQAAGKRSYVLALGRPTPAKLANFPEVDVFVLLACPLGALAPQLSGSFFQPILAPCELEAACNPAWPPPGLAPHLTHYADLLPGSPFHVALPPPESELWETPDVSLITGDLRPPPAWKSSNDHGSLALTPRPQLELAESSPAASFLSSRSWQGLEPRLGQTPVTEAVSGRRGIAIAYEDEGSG
UniProt Q9BZG8: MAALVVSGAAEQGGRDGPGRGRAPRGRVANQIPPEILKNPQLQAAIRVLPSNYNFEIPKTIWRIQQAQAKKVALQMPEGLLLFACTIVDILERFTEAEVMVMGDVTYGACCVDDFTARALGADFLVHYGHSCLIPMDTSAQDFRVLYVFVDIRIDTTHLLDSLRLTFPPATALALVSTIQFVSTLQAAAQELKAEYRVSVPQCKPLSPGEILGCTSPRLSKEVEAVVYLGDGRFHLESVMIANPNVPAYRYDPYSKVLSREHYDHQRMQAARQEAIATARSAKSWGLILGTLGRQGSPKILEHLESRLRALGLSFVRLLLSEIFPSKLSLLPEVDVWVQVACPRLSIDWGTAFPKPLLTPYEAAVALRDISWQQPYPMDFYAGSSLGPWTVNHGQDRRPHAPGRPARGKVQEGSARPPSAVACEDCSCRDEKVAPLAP
UniProt O75165, whole entry, looked up: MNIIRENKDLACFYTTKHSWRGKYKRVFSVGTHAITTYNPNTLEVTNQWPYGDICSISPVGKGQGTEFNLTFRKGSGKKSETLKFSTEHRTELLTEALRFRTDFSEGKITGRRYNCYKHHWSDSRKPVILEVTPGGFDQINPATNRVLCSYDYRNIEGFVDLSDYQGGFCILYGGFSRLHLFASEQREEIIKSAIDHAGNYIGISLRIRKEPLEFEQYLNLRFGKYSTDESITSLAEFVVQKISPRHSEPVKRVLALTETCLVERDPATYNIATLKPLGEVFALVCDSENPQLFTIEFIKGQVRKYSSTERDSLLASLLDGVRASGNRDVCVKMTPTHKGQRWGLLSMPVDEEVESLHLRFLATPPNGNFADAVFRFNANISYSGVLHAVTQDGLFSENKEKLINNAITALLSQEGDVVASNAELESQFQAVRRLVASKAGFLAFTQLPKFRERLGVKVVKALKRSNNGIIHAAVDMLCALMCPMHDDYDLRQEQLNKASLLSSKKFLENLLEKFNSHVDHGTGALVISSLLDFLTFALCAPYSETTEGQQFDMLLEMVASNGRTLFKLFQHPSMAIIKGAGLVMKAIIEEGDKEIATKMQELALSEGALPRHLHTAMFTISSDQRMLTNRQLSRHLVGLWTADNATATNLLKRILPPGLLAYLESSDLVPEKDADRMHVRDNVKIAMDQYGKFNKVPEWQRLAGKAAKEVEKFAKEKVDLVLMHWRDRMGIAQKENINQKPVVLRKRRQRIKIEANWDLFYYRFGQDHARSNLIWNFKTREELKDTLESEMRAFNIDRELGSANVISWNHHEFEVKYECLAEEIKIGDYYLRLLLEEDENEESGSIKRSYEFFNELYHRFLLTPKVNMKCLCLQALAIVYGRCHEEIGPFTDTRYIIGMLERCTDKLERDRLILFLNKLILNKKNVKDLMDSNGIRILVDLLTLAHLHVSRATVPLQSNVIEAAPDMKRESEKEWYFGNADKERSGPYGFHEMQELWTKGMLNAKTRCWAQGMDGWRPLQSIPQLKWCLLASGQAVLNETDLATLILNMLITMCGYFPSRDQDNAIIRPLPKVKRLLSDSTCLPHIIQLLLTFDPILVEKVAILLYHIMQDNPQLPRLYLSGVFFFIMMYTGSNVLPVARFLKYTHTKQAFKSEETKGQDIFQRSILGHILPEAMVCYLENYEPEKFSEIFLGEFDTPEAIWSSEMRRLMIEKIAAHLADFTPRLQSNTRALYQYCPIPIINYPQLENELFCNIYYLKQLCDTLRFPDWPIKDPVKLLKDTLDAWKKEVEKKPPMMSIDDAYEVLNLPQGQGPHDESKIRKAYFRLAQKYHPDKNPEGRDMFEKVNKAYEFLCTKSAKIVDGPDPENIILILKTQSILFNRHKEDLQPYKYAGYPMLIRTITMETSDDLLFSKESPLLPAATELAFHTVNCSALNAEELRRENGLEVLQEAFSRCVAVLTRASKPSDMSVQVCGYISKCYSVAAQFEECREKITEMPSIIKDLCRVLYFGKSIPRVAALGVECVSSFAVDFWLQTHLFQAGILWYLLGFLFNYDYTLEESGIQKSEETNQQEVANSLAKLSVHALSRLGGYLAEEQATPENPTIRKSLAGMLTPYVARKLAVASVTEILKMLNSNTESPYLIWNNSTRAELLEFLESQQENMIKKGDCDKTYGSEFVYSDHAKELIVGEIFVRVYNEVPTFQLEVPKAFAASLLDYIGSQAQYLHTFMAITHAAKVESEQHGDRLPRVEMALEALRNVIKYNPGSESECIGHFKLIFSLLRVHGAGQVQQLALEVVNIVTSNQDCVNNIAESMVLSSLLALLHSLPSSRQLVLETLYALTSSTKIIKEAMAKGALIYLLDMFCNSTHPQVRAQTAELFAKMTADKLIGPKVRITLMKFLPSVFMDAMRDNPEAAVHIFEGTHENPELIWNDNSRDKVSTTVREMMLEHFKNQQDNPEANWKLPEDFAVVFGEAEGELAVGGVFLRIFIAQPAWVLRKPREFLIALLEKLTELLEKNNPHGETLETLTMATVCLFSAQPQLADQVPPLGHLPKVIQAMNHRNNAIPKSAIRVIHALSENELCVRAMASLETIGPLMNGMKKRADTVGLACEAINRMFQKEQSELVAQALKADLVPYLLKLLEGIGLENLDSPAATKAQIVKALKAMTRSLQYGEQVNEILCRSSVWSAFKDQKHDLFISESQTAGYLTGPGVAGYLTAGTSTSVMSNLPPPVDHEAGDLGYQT
UniProt Q96FX2: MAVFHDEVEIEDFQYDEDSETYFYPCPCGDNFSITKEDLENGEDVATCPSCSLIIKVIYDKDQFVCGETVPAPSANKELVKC
UniProt Q9H3Z4: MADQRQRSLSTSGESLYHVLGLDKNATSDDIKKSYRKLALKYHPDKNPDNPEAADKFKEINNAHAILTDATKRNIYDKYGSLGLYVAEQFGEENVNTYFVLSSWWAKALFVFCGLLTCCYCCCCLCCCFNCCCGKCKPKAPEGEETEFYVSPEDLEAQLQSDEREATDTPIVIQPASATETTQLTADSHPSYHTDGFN
UniProt O00559: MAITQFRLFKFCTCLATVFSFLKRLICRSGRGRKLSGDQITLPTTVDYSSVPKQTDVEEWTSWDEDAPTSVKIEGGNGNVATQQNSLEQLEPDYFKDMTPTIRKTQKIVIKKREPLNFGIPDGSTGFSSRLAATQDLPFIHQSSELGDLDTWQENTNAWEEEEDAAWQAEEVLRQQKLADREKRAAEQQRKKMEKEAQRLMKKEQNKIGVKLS
UniProt O75061: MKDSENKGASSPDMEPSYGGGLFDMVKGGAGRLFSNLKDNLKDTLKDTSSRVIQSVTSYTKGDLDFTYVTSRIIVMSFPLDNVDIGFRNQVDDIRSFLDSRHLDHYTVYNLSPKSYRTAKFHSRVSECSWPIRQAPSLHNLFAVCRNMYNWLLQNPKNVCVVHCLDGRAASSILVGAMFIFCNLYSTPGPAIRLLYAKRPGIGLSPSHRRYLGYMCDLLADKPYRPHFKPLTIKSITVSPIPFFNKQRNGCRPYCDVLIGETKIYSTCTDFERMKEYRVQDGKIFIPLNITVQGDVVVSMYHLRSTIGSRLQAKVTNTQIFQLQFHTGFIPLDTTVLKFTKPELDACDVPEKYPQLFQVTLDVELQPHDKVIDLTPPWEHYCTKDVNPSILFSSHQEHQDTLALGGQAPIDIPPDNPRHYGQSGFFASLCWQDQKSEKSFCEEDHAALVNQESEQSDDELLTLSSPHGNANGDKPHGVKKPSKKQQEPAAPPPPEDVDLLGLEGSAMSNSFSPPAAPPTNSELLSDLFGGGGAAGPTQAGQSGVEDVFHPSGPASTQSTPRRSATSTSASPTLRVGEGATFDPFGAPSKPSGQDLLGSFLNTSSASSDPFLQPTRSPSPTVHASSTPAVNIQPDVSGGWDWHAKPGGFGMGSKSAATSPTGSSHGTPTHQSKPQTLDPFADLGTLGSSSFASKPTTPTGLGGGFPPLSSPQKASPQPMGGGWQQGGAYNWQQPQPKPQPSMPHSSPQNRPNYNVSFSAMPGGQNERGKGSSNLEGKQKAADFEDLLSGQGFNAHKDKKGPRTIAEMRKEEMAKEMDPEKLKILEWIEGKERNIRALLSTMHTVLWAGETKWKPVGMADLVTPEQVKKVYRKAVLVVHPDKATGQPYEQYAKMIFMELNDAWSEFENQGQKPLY

How the values were obtained:
Test in all cases: log2 fold change, soluble protein after heating vs DMSO (PISA); higher = thermal stabilisation; K562 cells, 10 uM, 30 min; active = over 0.2 and 3.5 SD of the protein, either way, in both replicates (recomputed)
[1] = compound: NC(=O)Nc1cc(-c2cccc(F)c2)sc1C(=O)N[C@H]1CCCNC1
Method in brief: (§1)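 Soluble protein was defined as the supernatant after 21,000xg for 90 min. It came from K562 cells at 2×10^6 cells/mL given 10 μM compound for 30 min, heated in aliquots for 3 min across 48°C-58°C, pooled, and extracted in PBS with 0.5% NP-40 at 4°C, and was quantified by TMTpro 16plex LC-MS/MS with equalised channel sums. Thermal stability against control samples, from duplicates, is reported as log2 fold change.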

[2] = compound: NC(=O)c1cnc(N[C@@H]2CCCC[C@@H]2N)nc1Nc1cccc(-n2nccn2)c1
Method in brief: as §1

[3] = compound: NC1(c2ccc(-c3nc4ccn5c(=O)[nH]nc5c4cc3-c3ccccc3)cc2)CCC1
Method in brief: as §1

[4] = compound: NCC(=O)Nc1ccc(-n2nc(C(F)(F)F)cc2-c2ccc3c(ccc4ccccc43)c2)cc1
Method in brief: as §1

entinostat = compound: Nc1ccccc1NC(=O)c1ccc(CNC(=O)OCc2cccnc2)cc1 [entinostat]
Method in brief: as §1

vorinostat = compound: O=C(CCCCCCC(=O)Nc1ccccc1)NO [vorinostat]
Method in brief: as §1

citarinostat = compound: O=C(CCCCCCNC(=O)c1cnc(N(c2ccccc2)c2ccccc2Cl)nc1)NO [citarinostat]
Method in brief: as §1

silmitasertib = compound: O=C(O)c1ccc2c(c1)nc(Nc1cccc(Cl)c1)c1ccncc12 [silmitasertib]
Method in brief: as §1

[5] = compound: O=C1NC(=O)C(c2cnc3ccccn23)=C1c1cn2c3c(cc(F)cc13)CN(C(=O)N1CCCCC1)CC2
Method in brief: as §1

[6] = compound: c1cc(OCCN2CCCCC2)cc(-c2n[nH]c3ccc(-c4nnc[nH]4)cc23)c1
Method in brief: as §1

entospletinib = compound: c1cn2cc(-c3ccc4cn[nH]c4c3)nc(Nc3ccc(N4CCOCC4)cc3)c2n1 [entospletinib]
Method in brief: as §1

Measured: log2 fold change

ECHDC1 (UniProt Q9NTX5)
inactive: [1] -0.009 | [2] -0.015 | [3] -0.006 | [4] -0.051 | entinostat -0.022 | vorinostat -0.074 | citarinostat 0.015 | silmitasertib -0.003 | [5] -0.079 | [6] -0.011 | entospletinib 0.008

DRG2 (UniProt P55039)
inactive: [1] -0.019 | [2] -0.07 | [3] -0.089 | [4] -0.004 | entinostat -0.019 | vorinostat -0.014 | citarinostat 0.048 | silmitasertib 0.014 | [5] -0.043 | [6] -0.027 | entospletinib -0.002

DPY19L3 (UniProt Q6ZPD9)
inactive: [1] -0.025 | [2] -0.019 | [3] 0.043 | [4] 0.032 | entinostat -0.058 | vorinostat 0 | citarinostat -0.026 | silmitasertib 0.057 | [5] 0.026 | [6] -0.067 | entospletinib 0.09

DSTN (UniProt P60981)
inactive: [1] -0.087 | [2] -0.048 | [3] -0.121 | [4] -0.04 | entinostat -0.05 | vorinostat -0.008 | citarinostat -0.002 | silmitasertib 0.014 | [5] -0.025 | [6] -0.035 | entospletinib 0.037

DYNC1LI1 (UniProt Q9Y6G9)
inactive: [1] -0.056 | [2] -0.078 | [3] -0.11 | [4] -0.037 | entinostat 0.017 | vorinostat 0.013 | citarinostat 0.036 | silmitasertib -0.046 | [5] -0.028 | [6] -0.031 | entospletinib 0.041

DNASE2 (UniProt O00115)
inactive: [1] -0.054 | [2] -0.043 | [3] -0.05 | [4] 0.012 | entinostat -0.023 | vorinostat -0.03 | citarinostat 0.002 | silmitasertib -0.013 | [5] 0.12 | [6] -0.019 | entospletinib 0.044

DNAJC2 (UniProt Q99543)
inactive: [1] -0.079 | [2] -0.048 | [3] 0.034 | [4] -0.068 | entinostat 0.061 | vorinostat 0.097 | citarinostat 0.109 | silmitasertib 0.045 | [5] 0.208 | [6] -0.088 | entospletinib -0.063

DNAJC8 (UniProt O75937)
inactive: [1] -0.008 | [2] -0.041 | [3] -0.043 | [4] -0.084 | entinostat 0.031 | vorinostat 0.009 | citarinostat 0.038 | silmitasertib 0.022 | [5] -0.053 | [6] -0.033 | entospletinib -0.043

DPH2 (UniProt Q9BQC3)
inactive: [1] 0 | [2] -0.088 | [3] -0.049 | [4] -0.019 | entinostat 0.028 | vorinostat 0.014 | citarinostat -0.001 | silmitasertib -0.058 | [5] -0.081 | [6] -0.018 | entospletinib -0.082

DPH1 (UniProt Q9BZG8)
inactive: [1] 0 | [2] -0.031 | [3] -0.049 | [4] 0.106 | entinostat 0.005 | vorinostat 0.036 | citarinostat 0.023 | silmitasertib -0.08 | [5] -0.065 | [6] -0.016 | entospletinib -0.075

DNAJC13 (UniProt O75165)
inactive: [1] 0.019 | [2] -0.051 | [3] -0.02 | [4] 0.004 | entinostat 0.012 | vorinostat 0.071 | citarinostat 0.019 | silmitasertib 0.049 | [5] 0.037 | [6] -0.112 | entospletinib -0.078

DPH3 (UniProt Q96FX2)
inactive: [1] 0.035 | [2] 0.286 | [3] 0.037 | [4] 0.035 | entinostat 0.076 | vorinostat -0.057 | citarinostat -0.01 | silmitasertib -0.002 | [5] -0.236 | [6] -0.012 | entospletinib 0.028

DNAJA3 (UniProt Q96EY1)
inactive: [1] 0.007 | [2] -0.037 | [3] 0.017 | [4] -0.034 | entinostat -0.063 | vorinostat 0.044 | citarinostat -0.01 | silmitasertib 0.14 | [5] 0.099 | [6] -0.072 | entospletinib 0.16

DPM1 (UniProt O60762)
inactive: [1] -0.008 | [2] -0.005 | [3] -0.067 | [4] -0.03 | entinostat -0.01 | vorinostat 0.01 | citarinostat 0.032 | silmitasertib -0.005 | [5] -0.048 | [6] -0.06 | entospletinib 0.104

DNAJC10 (UniProt Q8IXB1)
inactive: [1] 0.073 | [2] 0.012 | [3] 0 | [4] 0.101 | entinostat 0.014 | vorinostat -0.028 | citarinostat 0.004 | silmitasertib 0.003 | [5] 0.074 | [6] -0.07 | entospletinib 0.024

DNAJB6 (UniProt O75190)
inactive: [1] -0.08 | [2] -0.059 | [3] -0.018 | [4] -0.052 | entinostat -0.03 | vorinostat 0.018 | citarinostat -0.025 | silmitasertib -0.005 | [5] -0.005 | [6] -0.114 | entospletinib 0.026

2 records picked at random from the list so far, as already listed:
DNAJB6 (UniProt O75190)
inactive: [1] -0.08 | [2] -0.059 | [3] -0.018 | [4] -0.052 | entinostat -0.03 | vorinostat 0.018 | citarinostat -0.025 | silmitasertib -0.005 | [5] -0.005 | [6] -0.114 | entospletinib 0.026

DPH3 (UniProt Q96FX2)
inactive: [1] 0.035 | [2] 0.286 | [3] 0.037 | [4] 0.035 | entinostat 0.076 | vorinostat -0.057 | citarinostat -0.01 | silmitasertib -0.002 | [5] -0.236 | [6] -0.012 | entospletinib 0.028

Additional records follow.

ECI2 (UniProt O75521)
inactive: [1] -0.004 | [2] -0.009 | [3] 0.002 | [4] -0.045 | entinostat -0.004 | vorinostat 0.014 | citarinostat 0.015 | silmitasertib -0.039 | [5] -0.02 | [6] -0.041 | entospletinib 0.008

DNAJC5 (UniProt Q9H3Z4)
inactive: [1] -0.028 | [2] 0.032 | [3] 0.068 | [4] -0.041 | entinostat -0.051 | vorinostat -0.046 | citarinostat 0.004 | silmitasertib -0.027 | [5] -0.014 | [6] -0.015 | entospletinib 0.018

DNPEP (UniProt Q9ULA0)
inactive: [1] 0.082 | [2] 0.069 | [3] 0.018 | [4] 0.05 | entinostat -0.007 | vorinostat 0.012 | citarinostat 0.029 | silmitasertib -0.036 | [5] 0.021 | [6] 0.013 | entospletinib -0.025

ECSIT (UniProt Q9BQ95)
inactive: [1] -0.003 | [2] -0.019 | [3] -0.024 | [4] -0.055 | entinostat -0.021 | vorinostat 0.005 | citarinostat 0.03 | silmitasertib 0.014 | [5] -0.097 | [6] 0.027 | entospletinib 0.019

EBAG9 isoform 2 (UniProt O00559)
inactive: [1] 0.008 | [2] 0.171 | [3] 0.059 | [4] -0.004 | entinostat -0.054 | vorinostat 0.11 | citarinostat -0.033 | silmitasertib -0.05 | [5] 0.057 | [6] 0.02 | entospletinib -0.107

DNAJC6 isoform 2 (UniProt O75061)
inactive: [1] -0.036 | [2] -0.022 | [3] -0.067 | [4] -0.035 | entinostat -0.013 | vorinostat 0.059 | citarinostat -0.009 | silmitasertib 0.002 | [5] -0.09 | [6] -0.068 | entospletinib 0.041

DNAJC9 (UniProt Q8WXX5)
inactive: [1] -0.017 | [2] -0.105 | [3] -0.05 | [4] -0.076 | entinostat 0.027 | vorinostat -0.01 | citarinostat 0.055 | silmitasertib -0.009 | [5] -0.066 | [6] -0.022 | entospletinib -0.016

DPP7 (UniProt Q9UHL4)
inactive: [1] 0.007 | [2] 0.025 | [3] -0.029 | [4] 0.009 | entinostat -0.032 | vorinostat -0.026 | citarinostat 0.014 | silmitasertib 0.024 | [5] 0.07 | [6] -0.049 | entospletinib 0.021

EBP (UniProt Q15125)
inactive: [1] 0.022 | [2] 0.012 | [3] -0.054 | [4] -0.065 | entinostat 0.028 | vorinostat -0.014 | citarinostat 0.05 | silmitasertib -0.125 | [5] 0.058 | [6] 0.006 | entospletinib 0.004

DST (UniProt Q03001)
inactive: [1] -0.194 | [2] -0.186 | [3] -0.36 | [4] -0.095 | entinostat -0.098 | vorinostat 0.07 | citarinostat -0.036 | silmitasertib 0.156 | [5] -0.201 | [6] -0.084 | entospletinib 0.041

DUS4L (UniProt O95620)
inactive: [1] -0.164 | [2] -0.006 | [3] 0.004 | [4] -0.006 | entinostat -0.077 | vorinostat -0.049 | citarinostat -0.111 | silmitasertib 0.048 | [5] -0.105 | [6] -0.055 | entospletinib -0.001
